According to patent US7875282B2 (Cordis Corporation, priority 2004, dated 2011):
At least one structure is not confirmed: it was looked up by name or label, or the drawing left a doubt.

Experiments:
[1] = tested on: monocyte chemotactic protein (MCP-1); assay: Cytokine levels in vascular tissue after delivery from a stent; assay type: in vivo; conditions: delivered from a stent
[2] = tested on: neointimal hyperplasia; assay: Porcine studies with rapamycin-coated stents; assay type: in vivo; conditions: porcine and rabbit models, 35-430 ug/15-18 mm coronary stent, about twenty-eight to thirty days

## CO[C@H]1C[C@@H]2CC[C@@H](C)[C@@](O)(O2)C(=O)C(=O)N2CCCC[C@H]2C(=O)O[C@H]([C@H](C)C[C@@H]2CC[C@@H](O)[C@H](OC)C2)CC(=O)[C@H](C)/C=C(\C)[C@@H](O)[C@@H](OC)C(=O)[C@H](C)C[C@H](C)/C=C/C=C/C=C/1C [rapamycin]
[1]
  effect on MCP-1 levels in the vascular wall: highly effective in reducing monocyte chemotactic protein (MCP-1) levels
[2]
  peak reduction in neointimal hyperplasia: fifty to fifty-five
